# Earlier results in patent US20230052189A1, “TREATMENT OF PRIMARY BILIARY CHOLANGITIS WITH ELAFIBRANOR” (Genfit, priority 2020, published 2023).
# For at least one compound, name, drawing or mass did not settle the structure.
# System: patients with PBC
# Details: over 15 years; cited from earlier work
smiles,measurement,value
"C[C@H](CCC(=O)O)[C@H]1CC[C@H]2[C@@H]3[C@@H](O)C[C@@H]4C[C@H](O)CC[C@]4(C)[C@H]3CC[C@]12C [UDCA, ursodeoxycholic acid]",UDCA-treated patients progressing to liver transplant or death,44%
